No constants are given. Whether binding was seen depends on the method and setting. Some results given as binding are weak or reduced against the parent protein; the word gives no strength. Tags and fused reporters may be left off the sequences shown.

The source of these data is patent US20040248767A1 (AUTOGEN RESEARCH, published 2004).

The target of test [1] is T1, Serum amyloid A (SAA) purified from human sera / human plasma (Trace Scientific) (human) (UniProt P0DJI8).
T1 sequence (looked up): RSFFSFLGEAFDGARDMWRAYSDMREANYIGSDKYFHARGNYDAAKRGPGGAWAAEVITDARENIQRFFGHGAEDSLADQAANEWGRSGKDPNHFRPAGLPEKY
Kind of test: SPR (Biacore J), human plasma SAA on CM5 chip, GST-Tanis-C as analyte (FIGS. 10A and B).

Test [2] deals with T1, Serum amyloid A (SAA) purified from human sera / human plasma (Trace Scientific) (human). Kind of test: SPR (Biacore J), human plasma SAA on CM5 chip, GST-Tanis-C 5 µg as analyte (FIG. 10A, B).
The target is the same in test [3]. In words: SPR (Biacore J), SAA on chip, Tanis Cplus protein injected.
Test [4] shares this target. In words: SPR (Biacore J), SAA on CM5 chip, GST-fused fragment injected.
For test [5], the target named is T2, GST-Tanis-C (COOH-terminal fragment of Tanis, amino acids 54-189) (human).
T2 sequence: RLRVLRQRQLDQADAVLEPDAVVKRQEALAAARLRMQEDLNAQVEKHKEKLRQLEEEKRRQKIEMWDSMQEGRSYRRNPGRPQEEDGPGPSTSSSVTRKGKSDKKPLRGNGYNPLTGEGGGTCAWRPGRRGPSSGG
Kind of test: SPR (Biacore J), GST-Tanis-C on CM5 chip, human plasma SAA as analyte (FIG. 10C).

Test [6] has the same target. Kind of test: SPR (Biacore J), GST-Tanis-C on CM5 chip, human plasma SAA 5 µg as analyte (FIG. 10C).

B1: GST-Tanis-C (COOH-terminal fragment of Tanis, amino acids 54-189) (protein, not shown: a dimerising Fc or GST; small tags and cut ends)
chain: RLRVLRQRQLDQADAVLEPDAVVKRQEALAAARLRMQEDLNAQVEKHKEKLRQLEEEKRRQKIEMWDSMQEGRSYRRNPGRPQEEDGPGPSTSSSVTRKGKSDKKPLRGNGYNPLTGEGGGTCAWRPGRRGPSSGG
Consider B1, for which the binding entry in test [1] and in test [2] was “binds” throughout.

B2: GST-fused C-plus tanis (53-189aa) (protein, not shown: a dimerising Fc or GST; small tags and cut ends)
chain: VRLRVLRQRQLDQADAVLEPDAVVKRQEALAAARLRMQEDLNAQVEKHKEKLRQLEEEKRRQKIEMWDSMQEGRSYRRNPGRPQEEDGPGPSTSSSVTRKGKSDKKPLRGNGYNPLTGEGGGTCAWRPGRRGPSSGG
For B2, the binding result in test [3] and in test [4] was “binds” throughout.

B3: Serum amyloid A (SAA) purified from human sera / human plasma (Trace Scientific) (ligand, UniProt P0DJI8 19-122, looked up)
chain: RSFFSFLGEAFDGARDMWRAYSDMREANYIGSDKYFHARGNYDAAKRGPGGAWAAEVITDARENIQRFFGHGAEDSLADQAANEWGRSGKDPNHFRPAGLPEKY
notes: also called human plasma SAA
Regarding B3, the binding result in test [5] and in test [6] was “binds” each time.
